Results as given in paper PMC9508819, “Rbp95 binds to 25S rRNA helix H95 and cooperates with the Npa1 complex during early pre-60S particle maturation”.
Results are given in words; binding and its absence hold for the method and conditions named. In cells and extracts the contact can be indirect. These calls come from enrichment with a bait or labelling near it, and not all partners need be listed. Each block holds one molecule with its values, some of them ahead of it.

Protein sequences, listed by entry. Tags and fused reporters are not part of them. Lines headed by an entry give the natural chain unless they say otherwise; changes in a name come on top.
UniProt P34241: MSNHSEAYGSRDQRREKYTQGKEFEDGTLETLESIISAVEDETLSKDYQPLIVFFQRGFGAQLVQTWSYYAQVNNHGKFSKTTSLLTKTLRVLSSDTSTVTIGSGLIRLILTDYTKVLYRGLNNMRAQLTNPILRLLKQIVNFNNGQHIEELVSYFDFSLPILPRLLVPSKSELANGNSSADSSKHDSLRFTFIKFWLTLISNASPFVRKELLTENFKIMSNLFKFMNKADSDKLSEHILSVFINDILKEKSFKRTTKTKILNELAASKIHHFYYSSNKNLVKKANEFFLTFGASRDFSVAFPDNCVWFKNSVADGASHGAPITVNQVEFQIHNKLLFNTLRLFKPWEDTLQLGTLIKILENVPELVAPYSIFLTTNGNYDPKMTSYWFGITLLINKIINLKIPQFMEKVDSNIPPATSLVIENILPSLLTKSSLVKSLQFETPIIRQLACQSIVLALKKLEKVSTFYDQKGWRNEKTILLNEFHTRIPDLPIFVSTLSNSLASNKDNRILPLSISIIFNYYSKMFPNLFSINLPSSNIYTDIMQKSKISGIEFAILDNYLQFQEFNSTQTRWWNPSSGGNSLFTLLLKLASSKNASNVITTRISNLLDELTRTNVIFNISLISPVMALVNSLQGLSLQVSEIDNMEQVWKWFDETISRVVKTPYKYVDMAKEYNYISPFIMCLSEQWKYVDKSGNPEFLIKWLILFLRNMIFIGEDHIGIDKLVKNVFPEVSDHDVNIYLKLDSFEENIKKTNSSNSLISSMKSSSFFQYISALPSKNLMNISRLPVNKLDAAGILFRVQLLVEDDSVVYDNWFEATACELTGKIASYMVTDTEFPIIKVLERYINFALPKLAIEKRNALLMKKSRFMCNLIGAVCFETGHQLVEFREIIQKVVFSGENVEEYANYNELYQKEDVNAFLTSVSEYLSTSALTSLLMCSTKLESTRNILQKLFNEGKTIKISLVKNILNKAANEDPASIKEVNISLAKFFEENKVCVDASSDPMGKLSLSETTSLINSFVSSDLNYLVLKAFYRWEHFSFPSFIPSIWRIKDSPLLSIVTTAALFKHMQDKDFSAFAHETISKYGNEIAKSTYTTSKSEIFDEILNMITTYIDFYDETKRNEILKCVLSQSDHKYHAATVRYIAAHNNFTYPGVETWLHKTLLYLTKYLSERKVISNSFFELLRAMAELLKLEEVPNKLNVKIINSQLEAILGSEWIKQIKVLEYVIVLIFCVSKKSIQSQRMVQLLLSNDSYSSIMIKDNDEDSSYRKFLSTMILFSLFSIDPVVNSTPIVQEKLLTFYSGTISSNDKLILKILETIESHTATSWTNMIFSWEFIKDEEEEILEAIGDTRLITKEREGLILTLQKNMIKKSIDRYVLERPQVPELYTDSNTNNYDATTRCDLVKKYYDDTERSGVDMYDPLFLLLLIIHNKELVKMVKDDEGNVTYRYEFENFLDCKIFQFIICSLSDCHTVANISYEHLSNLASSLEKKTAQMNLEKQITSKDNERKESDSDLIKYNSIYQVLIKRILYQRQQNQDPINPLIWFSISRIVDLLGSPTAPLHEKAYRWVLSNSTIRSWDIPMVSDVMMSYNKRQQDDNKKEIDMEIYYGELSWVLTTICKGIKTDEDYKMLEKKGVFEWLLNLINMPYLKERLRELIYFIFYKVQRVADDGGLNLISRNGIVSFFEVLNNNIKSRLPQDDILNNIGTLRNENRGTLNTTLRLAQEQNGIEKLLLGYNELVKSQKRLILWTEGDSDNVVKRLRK
UniProt Q12499: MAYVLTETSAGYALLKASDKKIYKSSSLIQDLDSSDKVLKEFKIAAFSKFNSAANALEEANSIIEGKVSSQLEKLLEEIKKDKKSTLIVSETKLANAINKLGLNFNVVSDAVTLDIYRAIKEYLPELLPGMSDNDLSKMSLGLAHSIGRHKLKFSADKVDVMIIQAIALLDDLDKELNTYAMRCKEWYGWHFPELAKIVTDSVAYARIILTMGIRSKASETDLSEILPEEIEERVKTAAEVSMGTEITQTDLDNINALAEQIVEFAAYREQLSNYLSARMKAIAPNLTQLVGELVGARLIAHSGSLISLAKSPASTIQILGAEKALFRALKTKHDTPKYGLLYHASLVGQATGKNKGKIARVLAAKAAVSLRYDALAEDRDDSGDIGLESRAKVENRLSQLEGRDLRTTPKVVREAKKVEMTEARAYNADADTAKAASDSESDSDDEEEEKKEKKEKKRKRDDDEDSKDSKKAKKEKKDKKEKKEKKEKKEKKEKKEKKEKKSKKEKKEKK
UniProt P17076: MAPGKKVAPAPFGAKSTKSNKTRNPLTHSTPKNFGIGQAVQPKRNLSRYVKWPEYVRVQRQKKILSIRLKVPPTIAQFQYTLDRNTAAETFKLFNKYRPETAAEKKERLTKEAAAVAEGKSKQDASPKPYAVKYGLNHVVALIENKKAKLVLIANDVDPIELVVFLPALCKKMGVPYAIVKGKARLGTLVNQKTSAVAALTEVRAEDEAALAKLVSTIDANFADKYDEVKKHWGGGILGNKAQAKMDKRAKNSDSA
UniProt P15646: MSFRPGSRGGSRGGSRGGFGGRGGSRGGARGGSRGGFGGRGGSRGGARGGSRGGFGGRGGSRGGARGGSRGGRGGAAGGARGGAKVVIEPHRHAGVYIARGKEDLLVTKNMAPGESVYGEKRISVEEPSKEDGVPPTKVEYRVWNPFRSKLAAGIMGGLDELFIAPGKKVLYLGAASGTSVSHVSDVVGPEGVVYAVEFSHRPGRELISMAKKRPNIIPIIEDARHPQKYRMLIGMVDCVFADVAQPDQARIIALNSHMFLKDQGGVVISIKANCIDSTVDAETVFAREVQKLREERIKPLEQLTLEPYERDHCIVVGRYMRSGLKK
UniProt Q05022: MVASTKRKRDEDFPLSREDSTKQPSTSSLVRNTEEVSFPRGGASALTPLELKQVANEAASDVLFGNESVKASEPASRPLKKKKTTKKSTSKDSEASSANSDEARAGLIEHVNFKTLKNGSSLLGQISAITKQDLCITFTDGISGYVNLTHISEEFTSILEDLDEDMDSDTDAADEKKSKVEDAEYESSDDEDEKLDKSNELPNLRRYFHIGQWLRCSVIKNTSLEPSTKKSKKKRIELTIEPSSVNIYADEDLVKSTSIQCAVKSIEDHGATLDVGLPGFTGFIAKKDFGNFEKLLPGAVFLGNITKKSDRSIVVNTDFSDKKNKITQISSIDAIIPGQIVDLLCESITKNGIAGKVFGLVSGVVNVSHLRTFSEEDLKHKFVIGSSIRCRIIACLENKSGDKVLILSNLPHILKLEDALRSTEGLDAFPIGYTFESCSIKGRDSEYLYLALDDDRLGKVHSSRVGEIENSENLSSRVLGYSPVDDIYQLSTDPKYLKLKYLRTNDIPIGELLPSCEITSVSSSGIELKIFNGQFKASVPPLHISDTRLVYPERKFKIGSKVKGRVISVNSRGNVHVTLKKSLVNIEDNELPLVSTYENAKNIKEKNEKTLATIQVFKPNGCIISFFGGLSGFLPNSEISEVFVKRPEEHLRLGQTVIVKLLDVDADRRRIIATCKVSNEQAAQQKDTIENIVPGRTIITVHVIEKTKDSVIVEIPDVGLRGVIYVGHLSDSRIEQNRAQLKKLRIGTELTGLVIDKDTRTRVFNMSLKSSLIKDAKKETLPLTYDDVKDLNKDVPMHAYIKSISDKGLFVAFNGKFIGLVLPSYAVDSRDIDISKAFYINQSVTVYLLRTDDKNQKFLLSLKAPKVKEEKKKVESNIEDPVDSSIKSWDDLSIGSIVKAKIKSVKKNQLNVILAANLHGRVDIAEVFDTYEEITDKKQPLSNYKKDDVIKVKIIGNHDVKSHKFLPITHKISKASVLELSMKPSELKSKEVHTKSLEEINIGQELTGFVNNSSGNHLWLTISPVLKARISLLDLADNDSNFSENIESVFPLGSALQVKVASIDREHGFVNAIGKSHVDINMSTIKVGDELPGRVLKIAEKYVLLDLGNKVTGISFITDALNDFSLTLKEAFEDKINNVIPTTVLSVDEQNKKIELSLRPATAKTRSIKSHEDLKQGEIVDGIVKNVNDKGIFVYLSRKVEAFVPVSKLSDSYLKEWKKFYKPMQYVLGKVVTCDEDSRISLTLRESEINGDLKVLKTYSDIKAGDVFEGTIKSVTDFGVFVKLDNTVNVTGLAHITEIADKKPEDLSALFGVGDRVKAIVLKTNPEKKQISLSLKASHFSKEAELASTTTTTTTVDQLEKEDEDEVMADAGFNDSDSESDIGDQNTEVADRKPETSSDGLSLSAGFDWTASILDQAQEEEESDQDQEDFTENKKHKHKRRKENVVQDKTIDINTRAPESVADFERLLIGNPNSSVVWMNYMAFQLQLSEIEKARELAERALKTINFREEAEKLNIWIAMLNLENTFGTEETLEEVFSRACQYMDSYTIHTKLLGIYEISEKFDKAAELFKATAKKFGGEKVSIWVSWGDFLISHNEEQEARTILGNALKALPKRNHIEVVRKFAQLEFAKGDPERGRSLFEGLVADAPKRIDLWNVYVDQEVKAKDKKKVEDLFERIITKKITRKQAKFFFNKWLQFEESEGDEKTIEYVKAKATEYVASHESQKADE
UniProt P33322: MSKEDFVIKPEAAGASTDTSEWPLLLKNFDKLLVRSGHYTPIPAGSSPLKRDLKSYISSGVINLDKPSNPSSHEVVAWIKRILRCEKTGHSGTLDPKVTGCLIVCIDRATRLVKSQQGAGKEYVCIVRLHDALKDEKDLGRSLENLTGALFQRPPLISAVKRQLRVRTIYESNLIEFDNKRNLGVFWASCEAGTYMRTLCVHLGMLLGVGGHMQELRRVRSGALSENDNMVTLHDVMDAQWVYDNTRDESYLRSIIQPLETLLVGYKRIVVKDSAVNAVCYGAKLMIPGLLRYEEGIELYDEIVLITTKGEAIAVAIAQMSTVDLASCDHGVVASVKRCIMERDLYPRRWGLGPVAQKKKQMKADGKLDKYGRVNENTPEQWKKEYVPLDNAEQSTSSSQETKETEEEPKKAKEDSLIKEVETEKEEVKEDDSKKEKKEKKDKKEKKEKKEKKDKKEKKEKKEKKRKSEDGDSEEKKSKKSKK

Legend:
[1] = target: T1, Rbp95-TAP (S. cerevisiae) (UniProt P25617); assay: affinity purification with mass spectrometry; tandem-affinity purification from yeast lysate (IgG Sepharose, TEV elution, Calmodulin Sepharose, EGTA elution); 50 mM Tris-HCl pH 7.5, 100 mM NaCl, 1.5 mM MgCl2, 0.1% NP-40, 1 mM DTT; selected Coomassie-stained bands excised and identified by LC-MS/MS
T1 sequence: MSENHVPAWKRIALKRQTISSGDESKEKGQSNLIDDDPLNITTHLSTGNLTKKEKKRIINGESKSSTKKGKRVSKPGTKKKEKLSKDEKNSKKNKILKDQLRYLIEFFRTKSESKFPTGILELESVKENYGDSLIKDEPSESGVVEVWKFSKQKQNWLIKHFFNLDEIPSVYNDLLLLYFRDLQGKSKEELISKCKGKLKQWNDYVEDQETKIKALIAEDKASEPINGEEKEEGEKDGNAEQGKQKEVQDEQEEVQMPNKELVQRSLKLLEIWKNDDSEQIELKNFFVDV

Noc2-TAP (S. cerevisiae) = target: T2, Noc2-TAP (S. cerevisiae) (UniProt P39744); assay: affinity purification with mass spectrometry; tandem-affinity purification from yeast lysate, elution from Calmodulin Sepharose with 0.8% ammonium hydroxide; label-free semi-quantitative LC-MS/MS (LFQ, MaxQuant); for Figure 8A, B from wild-type and Δrbp95 strains
T2 sequence: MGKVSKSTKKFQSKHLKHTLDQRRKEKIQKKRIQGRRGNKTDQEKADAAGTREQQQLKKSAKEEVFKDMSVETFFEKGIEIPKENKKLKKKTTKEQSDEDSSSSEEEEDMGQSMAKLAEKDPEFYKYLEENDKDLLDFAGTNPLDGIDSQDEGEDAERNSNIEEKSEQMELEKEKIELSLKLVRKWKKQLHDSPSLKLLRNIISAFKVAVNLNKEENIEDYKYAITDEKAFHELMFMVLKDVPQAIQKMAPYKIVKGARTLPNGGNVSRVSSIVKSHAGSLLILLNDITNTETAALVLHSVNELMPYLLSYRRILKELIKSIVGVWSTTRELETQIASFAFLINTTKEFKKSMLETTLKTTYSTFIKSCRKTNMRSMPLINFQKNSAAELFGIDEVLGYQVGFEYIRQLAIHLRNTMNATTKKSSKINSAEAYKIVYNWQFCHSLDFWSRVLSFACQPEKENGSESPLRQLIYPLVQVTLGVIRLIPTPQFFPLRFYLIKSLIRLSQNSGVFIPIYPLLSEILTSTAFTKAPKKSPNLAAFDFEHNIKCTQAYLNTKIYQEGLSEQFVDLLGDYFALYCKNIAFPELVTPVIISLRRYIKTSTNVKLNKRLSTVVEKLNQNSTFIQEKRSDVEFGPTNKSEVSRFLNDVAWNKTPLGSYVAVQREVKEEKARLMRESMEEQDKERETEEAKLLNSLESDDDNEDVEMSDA

Ssf1-TAP (S. cerevisiae) = target: T3, Ssf1-TAP (S. cerevisiae) (UniProt P38789); assay: as above
T3 sequence: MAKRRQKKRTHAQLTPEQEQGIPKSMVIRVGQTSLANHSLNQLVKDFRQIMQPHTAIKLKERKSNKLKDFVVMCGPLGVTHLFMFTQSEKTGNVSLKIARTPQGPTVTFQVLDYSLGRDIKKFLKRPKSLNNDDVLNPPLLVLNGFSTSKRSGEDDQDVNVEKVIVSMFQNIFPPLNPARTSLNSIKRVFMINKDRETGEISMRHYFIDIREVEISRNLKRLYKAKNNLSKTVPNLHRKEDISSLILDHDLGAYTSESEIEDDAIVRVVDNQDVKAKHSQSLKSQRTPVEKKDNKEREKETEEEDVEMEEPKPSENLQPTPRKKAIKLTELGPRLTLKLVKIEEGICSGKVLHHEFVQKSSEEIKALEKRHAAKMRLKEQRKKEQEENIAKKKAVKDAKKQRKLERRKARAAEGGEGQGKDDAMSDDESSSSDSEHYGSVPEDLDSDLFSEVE

[2] = target: T1, Rbp95-TAP (S. cerevisiae); assay: as above
[3] = target: Npa1-TurboID (S. cerevisiae) (UniProt P34241); assay: proximity labelling; TurboID: C-terminally TurboID-tagged bait from the CUP1 promoter in yeast, 500 uM copper sulfate and biotin for 1 h; biotinylated proteins purified on streptavidin agarose, LC-MS/MS; enrichment against NLS-GFP-TurboID control

Molecule: Nop58 (from UniProt Q12499 1-511)
- binding [1]: binds

Molecule: Rpl8 (from UniProt P17076)
- binding (Noc2-TAP (S. cerevisiae)): binds
- binding (Ssf1-TAP (S. cerevisiae)): binds

Molecule: Nop1 (from UniProt P15646 1-327) (enzyme)
- binding [1]: binds

Molecule: Rrp5 (from UniProt Q05022 1-1729)
- binding (Ssf1-TAP (S. cerevisiae)): binds
- binding [1]: binds

B3: Rex4 (enzyme, UniProt Q08237 1-289)
chain: MALSSNWQALLASESNPTSNGKNKQSNRKIRNVKKVSKTVNVSSTTQYAPRKRKNGSKIMDMVYNMNKEISKHEKDKLEGKVFEFNPNKANTSTTIKEPVKVGISEDTRINSNKSKEIGKYIAMDCEFVGVGPEGKESALARISIVNYFGHVVLDEFVKPREKVVEWRTWVSGIKPEHMKNAITFKEAQKKTADILEGRILVGHALKHDLEALMLSHPKSLLRDTSRHLPFRKLYAKGKTPSLKKLTREVLKISIQEGEHSSVEDARATMLLYKKEKTEFEKIHRNTFN
- binding (Noc2-TAP (S. cerevisiae)): binds
- binding (Ssf1-TAP (S. cerevisiae)): binds

B4: Rsa3 (protein, UniProt Q05942 1-220)
chain: MSAGDISAINIKSVKKNRRRKKRRTADVSSSDSSSSDPSSESEKEEIQNGAIEEHVGENGKSDHVFSKGNDEDKQEDIAIEVSDVELTDEESKDLKLNSKEVIDDLTKISLSKIPEPTKSQNKEGFMNASKIAENIKLAREEYNELAENFVPKGKDKTKLREEYLNLLFENYGDDINRLRAAPDFTNKSLSILADALQEGIGMFDIGELELVLKNKEMEN
- binding [3]: binds
- binding [2]: binds

B7: Dbp9 (enzyme, UniProt Q06218 1-594)
chain: MSYEKKSVEGAYIDDSTTFEAFHLDSRLLQAIKNIGFQYPTLIQSHAIPLALQQKRDIIAKAATGSGKTLAYLIPVIETILEYKKTIDNGEENGTLGIILVPTRELAQQVYNVLEKLVLYCSKDIRTLNISSDMSDSVLSTLLMDQPEIIVGTPGKLLDLLQTKINSISLNELKFLVVDEVDLVLTFGYQDDLNKIGEYLPLKKNLQTFLMSATLNDDIQALKQKFCRSPAILKFNDEEINKNQNKLLQYYVKVSEFDKFLLCYVIFKLNLIKGKTLIFVNNIDRGYRLKLVMEQFGIKSCILNSELPVNSRQHIVDQFNKNVYQLLIATDDTEYIKEEDDEIEEGHNTENQEEKSLEGEPENDKKPSKKKKVQVKKDKEYGVSRGVDFKNVACVLNFDLPTTAKSYVHRVGRTARGGKTGTAISFVVPLKEFGKHKPSMLQTAKKDERILSRIIKQQSKLGLELQPYKFDQKQVEAFRYRMEDGFRAVTQVAIREARVKELKQELLASEKLKRHFEENPKELQSLRHDKELHPARVQQHLKRVPDYLLPESARGNGTKVKFVPFHNAKKRHSHKKGRVSKPKNGKVDPLKNFK
- binding (Noc2-TAP (S. cerevisiae)): binds
- binding [2]: binds
- binding [1]: binds

B8: Rrp14 (protein, UniProt P36080 1-434)
chain: MSNSLEERLRANSSAFDGLLALIPAKYYYDEKSQEQWKAKKKTKEQSKNDKLKKLDPEQRDDETSSTLEVMKKKEKDAKPVVLPGEKFKHMKMQKQKEATSKVEGDSDLNVEVNDPMIIAPDEDEEEEEDIKVIFDDEGNEIPLESKKDTTEPDRSVEKKSITEEEKLQRKKNLEALRSKLQAKISDMKSKRKAPGSREAILAQRKRKEELKKRKRLESEQEQDQDEIASDSDMEDIDSDLENNSKKRFKKGKKDSEINADGVMFQNIIFDDGARATSDLQRLRKAGRTKGPAKNDVKSHLKLLEAKKNKMEAKDELEQIKQKEKEKWQKAMLQAEGIKIRDDEKLLRKAIKRKEAQKRKSAIEWSERKRVVEDTISERQKRREENLRIRKDNKGKKRNKQEKMKRKYVGSAVPKKRAGFEGRLKTGKKKGGPK
- binding [1]: binds

The next lines start with the values.

- binding [1]: binds
Molecule: Cbf5 (from UniProt P33322 1-483) (enzyme)

- binding [2]: binds
- binding [1]: binds
B1: Nop13 (protein, UniProt P53883 1-403)
chain: MSETELSKEDAVTKKDNEEQVKKALLDPTKKRKAEDEIEIDLKSSIPLSKKQKRLLRRGKVTLEELNAKYNIDPKSIEEYKEDAEKKKSGASEKDAQGEESTINTPTGDESGEVVKKKKKDENKYGVWIGNLSFDTTKDDLVRFFIAKTKDNEDEKSRVTEQDITRLSMPRVAAKNSNAMKNKGFCYMFFKNVEQMKAVLELSESHLNGRNMLIKDSENYSGRPDKDDLVAMSKNPPSRILFVGNLSFDVTDDLLRKHFQHCGDIVKIRMATFEDSGKCKGFAFIDFKNEEGSTNALKDKSCRKIAGRPLRMEYGEDRSKRQVRKKVENVSRNNSSSFDISNNKGYDRAGQDNGSKPEYKRSNANRRPPVDSNNRTKSSVALATAQRGSAAIVPSQGKKVKFD

- binding (Noc2-TAP (S. cerevisiae)): binds
- binding [2]: binds
- binding (Ssf1-TAP (S. cerevisiae)): binds
B2: Upa2 (Ymr310c) (protein, UniProt Q04867 1-317)
chain: MSSTRKFKKVEKPLSQTRHYSLCIPTTLVSDCRNLSQITHKVYQVAKFASLFNVSEVVILEDNSQVDATKKKISTAKLILALLQYFVTPPYLRNTVFNEKFRPYLTAASKLPRLSTLPFTRYQKQDHGRYREGLTIKMQKPTLARKKIGKVFKQTKYINIGKSKALALQSQLVPINARVTIDTITRKIVSPQEAYGDFTGLDSQYGYYTRIASSFTDLFMKGPLKEGYTQSVYVPLTTRDTSIPELSSLPTAETNPHILLVFSTWDTLARAFKLDQDQFVDCQGPQEFFDAQLPCPVSNSDVADAIPMTLTTLSTVF

- binding (Noc2-TAP (S. cerevisiae)): binds
- binding [2]: binds
- binding (Ssf1-TAP (S. cerevisiae)): binds
B5: Upa1 (Ygr283c) (protein, UniProt P53336 1-341)
chain: MAVKHKSESLKHEEGAAKKAKTGLLKLKKIMDIESNVVKYSICIPTTVIDNCNNLEQVTFTAYQIARTAVLFNVQEIIVLDQSKDKKHEKKSRSKETISDCLLLATLLQYFVTPPNLLDTTFKKKNKLYLKCASTFPPLNQLPFMNASAEQHYKEGLSIARDSSKGKSDDALTNLVYIGKNQIITLSNQNIPNTARVTVDTERKEVVSPIDAYKGKPLGYHVRMASTLNEVSEGYTKIVWVNSGDFHYDEELSKYHKVETKLPYIAKLKKSSTSEKPCNILLIFGKWGHLKRCFRRSDLESSSLHHYFSGQLQFPASVPQGNIPIQDSLPIALTMFQRWAS

- binding [2]: binds
- binding (Ssf1-TAP (S. cerevisiae)): binds
B6: Nop4 (protein, UniProt P37838 1-685)
chain: MEETIENVEVPSSNVSKQNDDGLDMKTLFVRSIPQDVTDEQLADFFSNFAPIKHAVVVKDTNKRSRGFGFVSFAVEDDTKEALAKARKTKFNGHILRVDIAKRRDRSKKTSEVVEKSTPESSEKITGQNNEDEDDADGEDSMLKGKPKLIIRNMPWSCRDPVKLKKIFGRYGTVVEATIPRKRDGKLCGFAFVTMKKISNCRIALENTKDLKIDGRKVAVDFAVQKNRWEDYKKAQPEMNDKDDNESGNEDAEENHDDEEDENEEEDRQVDQASKNKESKRKAQNKREDFSVFVRNVPYDATEESLAPHFSKFGSVKYALPVIDKSTGLAKGTAFVAFKDQYTYNECIKNAPAAGSTSLLIGDDVMPEYVYEGRVLSITPTLVREDAGRMAEKNAAKRKEALGKAPGEKDRRNLYLLNEGRVVEGSKMADLLTNTDMEIREKSYKLRVEQLKKNPSLHLSMTRLAIRNLPRAMNDKALKALARKAVVEFATEVKNKERHPLSKEEIIRSTKEKYKFMGPDEIEAQKKKDKKSGVVKQAKVIMEVKGSTAGRSRGYGFVEFRDHKNALMGLRWLNCHAVTSDEILEGLNDDEKKQVDNDLGKGRRLCVEFAIENSNVVKRRREQLKQARTKRTRPDNEDTGDVGESENKKPKKEEATTPTNPDDKKMGDDIKRIIGFKRKRKHAKK
